# Assay results: paper PMC8217053
# Chains of the proteins cited; added tags and fusions are not shown. Residues count along the entry.
# UniProt Q92673, residues 82-2214: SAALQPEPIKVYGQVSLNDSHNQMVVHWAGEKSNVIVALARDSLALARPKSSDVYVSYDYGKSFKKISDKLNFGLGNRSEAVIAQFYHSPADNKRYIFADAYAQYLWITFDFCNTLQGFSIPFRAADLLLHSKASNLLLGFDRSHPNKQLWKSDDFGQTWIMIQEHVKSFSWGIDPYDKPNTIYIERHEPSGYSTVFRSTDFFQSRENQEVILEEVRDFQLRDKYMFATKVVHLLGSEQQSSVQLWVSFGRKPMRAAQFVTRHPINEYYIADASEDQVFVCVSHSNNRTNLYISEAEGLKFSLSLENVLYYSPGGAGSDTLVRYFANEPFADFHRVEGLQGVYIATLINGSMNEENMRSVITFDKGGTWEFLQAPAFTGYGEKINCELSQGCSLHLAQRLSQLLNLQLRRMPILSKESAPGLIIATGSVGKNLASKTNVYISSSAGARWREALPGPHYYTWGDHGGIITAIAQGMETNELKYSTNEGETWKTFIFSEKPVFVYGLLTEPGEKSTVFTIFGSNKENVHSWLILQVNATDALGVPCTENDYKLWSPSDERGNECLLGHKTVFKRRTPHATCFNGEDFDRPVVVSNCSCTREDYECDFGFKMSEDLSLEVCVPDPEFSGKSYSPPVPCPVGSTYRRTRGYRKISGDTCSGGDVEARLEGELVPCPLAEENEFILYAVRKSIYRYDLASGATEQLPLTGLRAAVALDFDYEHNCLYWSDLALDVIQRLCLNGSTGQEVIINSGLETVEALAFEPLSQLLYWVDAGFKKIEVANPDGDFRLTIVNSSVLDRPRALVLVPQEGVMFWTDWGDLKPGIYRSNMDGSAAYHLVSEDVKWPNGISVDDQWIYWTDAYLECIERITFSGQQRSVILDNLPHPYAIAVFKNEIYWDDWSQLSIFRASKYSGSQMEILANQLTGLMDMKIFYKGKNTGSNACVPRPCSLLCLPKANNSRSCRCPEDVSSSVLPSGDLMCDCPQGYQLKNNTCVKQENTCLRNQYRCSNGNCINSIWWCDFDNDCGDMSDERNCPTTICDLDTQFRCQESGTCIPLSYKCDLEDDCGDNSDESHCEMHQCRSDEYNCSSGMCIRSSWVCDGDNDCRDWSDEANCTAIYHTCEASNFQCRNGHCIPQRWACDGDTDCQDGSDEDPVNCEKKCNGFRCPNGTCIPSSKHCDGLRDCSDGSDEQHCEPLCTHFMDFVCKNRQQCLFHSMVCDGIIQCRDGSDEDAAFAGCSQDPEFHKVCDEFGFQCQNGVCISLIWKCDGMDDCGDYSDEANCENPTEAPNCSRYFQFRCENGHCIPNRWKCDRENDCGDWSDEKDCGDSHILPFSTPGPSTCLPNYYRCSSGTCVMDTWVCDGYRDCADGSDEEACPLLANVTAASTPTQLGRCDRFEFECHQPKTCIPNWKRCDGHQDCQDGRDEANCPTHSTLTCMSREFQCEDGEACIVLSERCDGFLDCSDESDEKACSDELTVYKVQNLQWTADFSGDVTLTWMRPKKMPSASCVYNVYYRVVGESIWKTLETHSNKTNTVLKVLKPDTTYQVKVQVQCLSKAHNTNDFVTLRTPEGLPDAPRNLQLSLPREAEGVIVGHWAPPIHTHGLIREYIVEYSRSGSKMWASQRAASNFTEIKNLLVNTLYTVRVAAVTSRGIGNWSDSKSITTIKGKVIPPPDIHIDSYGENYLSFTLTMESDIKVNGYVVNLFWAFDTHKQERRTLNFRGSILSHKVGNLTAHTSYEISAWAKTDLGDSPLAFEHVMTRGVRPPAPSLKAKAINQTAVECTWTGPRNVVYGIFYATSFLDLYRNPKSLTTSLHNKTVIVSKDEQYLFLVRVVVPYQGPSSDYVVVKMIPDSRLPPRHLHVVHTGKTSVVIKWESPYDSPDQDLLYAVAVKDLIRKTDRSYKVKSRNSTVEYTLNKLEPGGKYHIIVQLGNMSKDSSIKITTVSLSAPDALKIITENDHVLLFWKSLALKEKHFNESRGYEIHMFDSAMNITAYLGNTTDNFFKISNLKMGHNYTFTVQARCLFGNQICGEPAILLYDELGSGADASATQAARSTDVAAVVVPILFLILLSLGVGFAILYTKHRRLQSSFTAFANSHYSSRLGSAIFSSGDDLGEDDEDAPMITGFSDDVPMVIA
# No constants are given. Whether binding was seen depends on the method and setting. In cells and extracts the contact can be indirect. Some entries that bind do so weakly or less than the wild type. Where a sequence is shown, tags or fusion partners need not be part of it.
# T1: N-terminally V5-tagged full-length LRP10 (low-density lipoprotein receptor-related protein 10) (human) (UniProt Q7Z4F1)
# T1 sequence: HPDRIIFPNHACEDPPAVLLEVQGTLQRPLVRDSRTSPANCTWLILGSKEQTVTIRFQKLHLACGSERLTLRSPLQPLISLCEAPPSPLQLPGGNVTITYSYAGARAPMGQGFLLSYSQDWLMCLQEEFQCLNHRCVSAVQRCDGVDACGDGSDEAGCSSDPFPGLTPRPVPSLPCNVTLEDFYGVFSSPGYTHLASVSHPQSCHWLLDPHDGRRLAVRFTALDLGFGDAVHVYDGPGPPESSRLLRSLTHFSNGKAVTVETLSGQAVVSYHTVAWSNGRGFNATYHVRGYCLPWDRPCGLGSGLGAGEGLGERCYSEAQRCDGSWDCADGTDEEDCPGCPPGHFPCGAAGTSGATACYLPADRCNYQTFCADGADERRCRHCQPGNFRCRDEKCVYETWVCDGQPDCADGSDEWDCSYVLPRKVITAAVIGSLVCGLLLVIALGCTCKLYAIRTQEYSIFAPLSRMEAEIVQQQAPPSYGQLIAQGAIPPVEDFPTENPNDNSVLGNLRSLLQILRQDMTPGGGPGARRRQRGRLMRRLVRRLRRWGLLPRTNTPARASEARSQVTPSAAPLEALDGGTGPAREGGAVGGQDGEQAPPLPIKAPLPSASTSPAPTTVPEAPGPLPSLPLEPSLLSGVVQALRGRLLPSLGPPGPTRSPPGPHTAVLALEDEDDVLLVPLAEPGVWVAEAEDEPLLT
# How the values were obtained:
# [1] = biological target: T1, N-terminally V5-tagged full-length LRP10 (low-density lipoprotein receptor-related protein 10) (human); assay: co-IP; HEK293T cells transfected with V5-LRP10 and SORL1 constructs, lysed after 48 h; precleared lysate (400 ug) incubated overnight at 4 C with antibody-loaded Protein G magnetic beads (mouse anti-SORL1 or anti-LRP10; mouse IgG as negative control); washes with 50 mM Tris-Cl pH 7.4, 0.5 M NaCl, 0.05% TWEEN 20, 0.05% IGEPAL CA-630; Western blot; LRP10 KO cells with SORL1 alone as control
# [2] = biological target: untagged full-length SORL1 (sortilin-related receptor 1) (human) (UniProt Q92673); assay: as above
Molecule,binding [1],binding [2]
untagged full-length SORL1 (sortilin-related receptor 1) (from UniProt Q92673 82-2214),binds,
"N-terminally V5-tagged full-length LRP10 (low-density lipoprotein receptor-related protein 10) (receptor, UniProt Q7Z4F1 17-713) HPDRIIFPNHACEDPPAVLLEVQGTLQRPLVRDSRTSPANCTWLILGSKEQTVTIRFQKLHLACGSERLTLRSPLQPLISLCEAPPSPLQLPGGNVTITYSYAGARAPMGQGFLLSYSQDWLMCLQEEFQCLNHRCVSAVQRCDGVDACGDGSDEAGCSSDPFPGLTPRPVPSLPCNVTLEDFYGVFSSPGYTHLASVSHPQSCHWLLDPHDGRRLAVRFTALDLGFGDAVHVYDGPGPPESSRLLRSLTHFSNGKAVTVETLSGQAVVSYHTVAWSNGRGFNATYHVRGYCLPWDRPCGLGSGLGAGEGLGERCYSEAQRCDGSWDCADGTDEEDCPGCPPGHFPCGAAGTSGATACYLPADRCNYQTFCADGADERRCRHCQPGNFRCRDEKCVYETWVCDGQPDCADGSDEWDCSYVLPRKVITAAVIGSLVCGLLLVIALGCTCKLYAIRTQEYSIFAPLSRMEAEIVQQQAPPSYGQLIAQGAIPPVEDFPTENPNDNSVLGNLRSLLQILRQDMTPGGGPGARRRQRGRLMRRLVRRLRRWGLLPRTNTPARASEARSQVTPSAAPLEALDGGTGPAREGGAVGGQDGEQAPPLPIKAPLPSASTSPAPTTVPEAPGPLPSLPLEPSLLSGVVQALRGRLLPSLGPPGPTRSPPGPHTAVLALEDEDDVLLVPLAEPGVWVAEAEDEPLLT",,binds
